Here are results for 42 sequences from paper PMC7819943, “Rice protein-binding microarrays: a tool to detect cis-acting elements near promoter regions in rice”.

Chains of the proteins cited; added tags and fusions are not shown.
UniProt Q0JBA9, entry or part of it: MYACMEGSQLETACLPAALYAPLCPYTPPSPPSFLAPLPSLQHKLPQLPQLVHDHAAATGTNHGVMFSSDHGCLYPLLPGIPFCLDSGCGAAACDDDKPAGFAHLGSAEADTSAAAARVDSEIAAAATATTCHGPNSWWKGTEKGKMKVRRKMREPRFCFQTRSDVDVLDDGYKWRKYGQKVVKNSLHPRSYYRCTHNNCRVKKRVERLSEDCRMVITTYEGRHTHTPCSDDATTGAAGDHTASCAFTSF

Some of the results follow.

This experiment addresses OsWRKY34 (Oryza sativa, UniProt Q0JBA9 1-250). In words: protein-binding microarray (RPBM); PBS, 2% BSA, 51.3 ng/ul salmon testes DNA, 50 uM zinc acetate, 200 nM TF, 25 C, 1 h; high values mean tight binding. The conditions noted are these: protein: recombinant; tags: N-terminal polyhistidine and DsRed monomer fusion (pET32a); label: CyDye5-dUTP incorporated in the synthesized complementary strand; 3' TTTTT single-stranded linker to array surface; dsDNA, one strand shown. The gist of the method: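 The binding signal is fluorescence intensity per array feature (arbitrary units). Readings came from an Axon 4000B scanner after a washed, 2% BSA-blocked, double-stranded custom Agilent array had been incubated for 1 h at 25 °C with 200 nM protein and 50 µM zinc acetate. The protein was a Ni–NTA-purified transcription factor fused N-terminally to polyhistidine and DsRed, expressed in E. coli BL21-CodonPlus.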
As for “TCATCCATCAGATATCCTCCACGTGTTGTCCTCGATCCCGCGGAGTCACCTAGTGCAG”, the binding signal was 9070 fluorescence intensity (a.u.).

“AGGCGGAGAAAAGAGGGAGGGAGGGAGTGTGGACGTCTGACGGAGTCACCTAGTGCAG”: the binding signal is 9530 fluorescence intensity (a.u.). Take “TCCACCTCATCATTATTCAGTGCAATGCACATACATTTTACGGAGTCACCTAGTGCAG”: the binding signal was 8590 fluorescence intensity (a.u.). For the sequence “TACTCCTGCATTGCTCTACAATTTTTGGGTCATGTAATTTCGGAGTCACCTAGTGCAG”, the binding signal is 9490 fluorescence intensity (a.u.). The same measure for “GGTTATCTCAAATATTGTACTTGTGTGATTCTGATGAATACGGAGTCACCTAGTGCAG”: 9970 fluorescence intensity (a.u.). Regarding “CGATCCCCATCTCTCCGGATTCCTTCTTTCCTTCCTTATTCGGAGTCACCTAGTGCAG”, the binding signal was 11100 fluorescence intensity (a.u.). In the case of “TCACCCCAACTTCCGTTTCGAACTCAGTCTCAGCTCACATCGGAGTCACCTAGTGCAG”, the binding signal is 10800 fluorescence intensity (a.u.). As for “CCCTTGTCCATCCGCCAACGCCACGTCACCTCCTCCGCTACGGAGTCACCTAGTGCAG”, the binding signal is 9650 fluorescence intensity (a.u.).

On to “CATGTATTGTGTTATTTTGGATTTTACATTGGACGTAACTCGGAGTCACCTAGTGCAG”, for which the binding signal was 9340 fluorescence intensity (a.u.). As for “AACACCGTTCTATCATCCACAGCCACTGCATCATTTCATTCGGAGTCACCTAGTGCAG”, the binding signal is 9420 fluorescence intensity (a.u.). As for “CGGTTCTTTGTTGATGCTTTATTTTTCATCCATAAGTTTACGGAGTCACCTAGTGCAG”, the binding signal is 11200 fluorescence intensity (a.u.).

With “CGCAATCCAGAGTGCCACACTACCCAGCTCTTCTTCTTCTCGGAGTCACCTAGTGCAG”, the binding signal is 10300 fluorescence intensity (a.u.). As for “ATCATGTACATCTCATAGTCAACAATATTCATCACAATCTCGGAGTCACCTAGTGCAG”, the binding signal was 9470 fluorescence intensity (a.u.).

On to “CCGATTCCTATGTTTTTCCTATGTTACAATCAAATAATTTCGGAGTCACCTAGTGCAG”, for which the binding signal was 9310 fluorescence intensity (a.u.).

For the sequence “CTCCTACCTTTTCTTCTTCCTTTCAATTCCTCCTGCTCTTCGGAGTCACCTAGTGCAG”, the binding signal was 12700 fluorescence intensity (a.u.). On to “ATATCTCTTTCAAACTTTCAACTTTTTCATCACATCAAAACGGAGTCACCTAGTGCAG”, for which the binding signal was 9590 fluorescence intensity (a.u.).

Take “GACTTTTTTAAACATATTTGACCGTTCGTTTTATTCAAAACGGAGTCACCTAGTGCAG”: the binding signal is 8190 fluorescence intensity (a.u.). The same measure for “CTCTTCTCACCGCTTCACCTGTGCCAAAACCCTTGAGCTCCGGAGTCACCTAGTGCAG”: 9920 fluorescence intensity (a.u.). Consider “TCACGAAGCCACATTGAACCTGCCTCGCCTCACGAAAACGCGGAGTCACCTAGTGCAG”, for which the binding signal is 9690 fluorescence intensity (a.u.).

Take “GCACATGTTTGACCATTCATCTTATAAGAAAAAACTTTTGCGGAGTCACCTAGTGCAG”: the binding signal is 8090 fluorescence intensity (a.u.). “GCCTTTTCTTCTTTCTTTCATCTCTCGCCGAGCCGAGCCGCGGAGTCACCTAGTGCAG”: the binding signal is 10200 fluorescence intensity (a.u.). “TATATATATATATATATATATATATAATGGGCACCATCTACGGAGTCACCTAGTGCAG”: the binding signal is 8480 fluorescence intensity (a.u.).

For the sequence “ACTCTCTTCCTCACGACGCACCACGGGCTAGCCACTCCTACGGAGTCACCTAGTGCAG”, the binding signal is 8340 fluorescence intensity (a.u.). Consider “CCCTGCATCCACTCCACAGTCCACCACACCACAAACGTATCGGAGTCACCTAGTGCAG”, for which the binding signal is 11100 fluorescence intensity (a.u.). On to “CGGAGAAGTTGCCTTTTGCTGTGTGCGCTGTGTTGGTGGGCGGAGTCACCTAGTGCAG”, for which the binding signal is 8710 fluorescence intensity (a.u.). Take “CCAGCACCATCGCTTCCAACCTCCGCATATATTAACCTCCCGGAGTCACCTAGTGCAG”: the binding signal was 11000 fluorescence intensity (a.u.). On to “TCTACTCATCATTGGTGGAGACAGTCTGACCTTTATCACGCGGAGTCACCTAGTGCAG”, for which the binding signal is 8300 fluorescence intensity (a.u.).

On to “GGTGTTAGCTTTAGGTTTTGGTGTTTGGTTGGGTAATTTTCGGAGTCACCTAGTGCAG”, for which the binding signal is 17300 fluorescence intensity (a.u.). Consider “TCATTGCCACCTCTGTCATGTGTAAATGATGCTTCTATTTCGGAGTCACCTAGTGCAG”, for which the binding signal is 10400 fluorescence intensity (a.u.). Turning to “GCTATAAATTTGTAGCCCGTTTTCCTTCTCTCTTCTTCTTCGGAGTCACCTAGTGCAG”, the binding signal was 10600 fluorescence intensity (a.u.). With “GAGCCCACGTCATCCCATCCCCTCGCGAGTCGCCTTCGAGCGGAGTCACCTAGTGCAG”, the binding signal was 8350 fluorescence intensity (a.u.). As to “AGCTTCTTTTTCACCTCTATGATCTTCTCTCGCTCTGAAACGGAGTCACCTAGTGCAG”, the binding signal was 13100 fluorescence intensity (a.u.). Regarding “TTTCACCATGGTCCGATGTTTCTGCCACTTTCCGCATGCTCGGAGTCACCTAGTGCAG”, the binding signal was 15600 fluorescence intensity (a.u.). On to “CCTCTCCTCTCCATATGTTGAGTTGTTGACCTCCGGCGGCCGGAGTCACCTAGTGCAG”, for which the binding signal was 8300 fluorescence intensity (a.u.).

In the case of “CGGCCGCAAGATTGGTCCCCTTTTCCTCCGGGCCTACCACCGGAGTCACCTAGTGCAG”, the binding signal was 8290 fluorescence intensity (a.u.). In the case of “CGCAACATCCGCGTCTGCCTCACTCCTGGCCAGCGCCTAGCGGAGTCACCTAGTGCAG” it was 9420 fluorescence intensity (a.u.); in that of “TTTTTTTTCATCCATATTTAATGCTCTATGCTTGTGTCCACGGAGTCACCTAGTGCAG”, 9650 fluorescence intensity (a.u.); in that of “ATTTTTATAGTATTACATCTACGTGTAAAGTTTCATCTTTCGGAGTCACCTAGTGCAG”, 8260 fluorescence intensity (a.u.). As for “GGTTTAGGCGTTTCTTGGACGAACACCTCGAGCTCTTCTCCGGAGTCACCTAGTGCAG”, the binding signal was 9520 fluorescence intensity (a.u.).

Turning to “GGTTCCTGGGCCAACCGTGCCCCGTCCACGGCCCATTTTTCGGAGTCACCTAGTGCAG”, the binding signal was 9650 fluorescence intensity (a.u.). For “GAGGGATAAAATAGTTAGTGTTATATAATTACTTCCTACTCGGAGTCACCTAGTGCAG”, the binding signal is 8660 fluorescence intensity (a.u.). Take “AAGGCAACTTTTGGTCTCTGTCTGATCATTTTTTTTTCCCCGGAGTCACCTAGTGCAG”: the binding signal is 9020 fluorescence intensity (a.u.).
